Assay results reported in PubChem BioAssay AID2283166 (EPA ToxCast).
Inconclusive means that the source gave no clear call. Potencies beside an inconclusive call are fits to weak or partial responses and may not hold up.

Protein sequences, listed by entry. Tags and fused reporters are not part of them.
UniProt Q9NWZ3, whole entry, looked up: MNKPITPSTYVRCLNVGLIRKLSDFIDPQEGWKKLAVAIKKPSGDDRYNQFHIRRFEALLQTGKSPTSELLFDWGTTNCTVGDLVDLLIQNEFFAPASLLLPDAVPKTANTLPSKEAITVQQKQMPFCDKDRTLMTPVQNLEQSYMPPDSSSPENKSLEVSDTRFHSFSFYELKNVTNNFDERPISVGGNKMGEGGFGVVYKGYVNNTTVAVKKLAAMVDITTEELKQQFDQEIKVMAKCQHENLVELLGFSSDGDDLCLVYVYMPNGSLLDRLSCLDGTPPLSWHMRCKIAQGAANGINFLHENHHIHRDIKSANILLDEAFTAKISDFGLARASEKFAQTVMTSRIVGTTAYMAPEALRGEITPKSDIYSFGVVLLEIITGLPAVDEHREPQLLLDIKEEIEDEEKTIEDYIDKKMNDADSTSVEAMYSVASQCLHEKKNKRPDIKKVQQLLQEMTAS

Molecular target: human Interleukin-1 Receptor-Associated Kinase 4 (IRAK4), IRAK4 (gene 51135) (UniProt Q9NWZ3)
Test: NVS_ENZ_hIRAK4: NovaScreen (NVS) Enzymatic Assay for human Interleukin-1 Receptor-Associated Kinase 4 (IRAK4); active = hit-call score of the fitted dose curve at least 0.9, where 1 is the maximum; inconclusive = response in the unintended direction; inactive = score below 0.9
Protocol: NVS_ENZ_hIRAK4 is a biochemical, single-readout assay that uses extracted gene-proteins in a cell-free assay. Measurements were taken 1 hour after chemical dosing in a 384-well plate.NVS_ENZ_hIRAK4 is one of one assay component(s) measured or calculated from the NVS_ENZ_hIRAK4 assay. It is designed to make measurements of enzyme activity, a form of enzyme reporter, as detected with fluorescence intensity signals by Fluorescence and electrophoretic mobility shift technology.Data from the assay component NVS_ENZ_hIRAK4 was analyzed into 1 assay endpoint. This assay endpoint, NVS_ENZ_hIRAK4, was analyzed in the positive analysis fitting direction relative to DMSO as the negative control and baseline of activity. Using a type of enzyme reporter, loss-of-signal activity can be used to understand changes in the enzymatic activity as they relate to the gene IRAK4. Furthermore, this assay endpoint can be referred to as a primary readout, because this assay has produced […] where this one serves a enzymatic activity function. To generalize the intended target to other relatable targets, this assay endpoint is annotated to the kinase intended target family, where the subfamily is […]. […]

S=C(S)NCCNC(=S)S.[Mn+2].[S-]C([S-])=NCCN=C([S-])[S-].[Zn+2]
AC50: inconclusive: 2.29 nM

S=C([S-])NCCNC(=S)[S-].[Mn+2]
AC50: inconclusive: 2.29 nM
